Reference: PubChem BioAssay AID652243 (Drosophila RNAi Screening Center, 2013)

Purpose: 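Fly genes required for human androgen receptor driven transcription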 (primary screen)
Cells: Drosophila S2R+ cells
Reagent: long dsRNA against Drosophila genes
Time to read-out: 72 h (48 h, then 24 h hormone)
Challenge: synthetic androgen R1881 at 10 nM for 24 h
Measurement: 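Per-well raw luminescence of the androgen-driven firefly reporter and of the Renilla control, two replicates each, without normalisation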
Scale: firefly reporter light: higher = more light from androgen-responsive reporter; Renilla control light: higher = more constitutive control signal (cell number, transfection)
Active means: 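Across duplicate plates, a knock-down whose log firefly/Renilla ratio shifted a set fold down or up from the GFP/LacZ control mean was a hit; the downward cut appears as both 1.5 and 3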
Calls: active = hit: reporter lowered or raised; inactive = no hit
The screen tested about 24,000 reagents; below is a random part of those with a known target gene and a result. Of all reagents, 246 (1%) were called active. 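Plates not normalised; calls are printed but the firefly/Renilla ratio behind them is not deposited; fold cut for lowering reported inconsistently.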 The raw values are shown without normalisation. Reagents against one gene are numbered here. A plus sign joins genes that one reagent is predicted to hit. The record does not give: the amount of reagent.

no.	gene knocked down	dsRNA no.	firefly reporter light, replicate 1	firefly reporter light, replicate 2	Renilla control light, replicate 1	Renilla control light, replicate 2	outcome
1	CG32591	1	4.39e5	3.47e5	4.64e5	3.21e5	inactive
2	Lamtor2 + CG30120	1	1.21e5	1.39e5	2.34e5	2.61e5	inactive
3	Lamtor2 + CG30120	2	1.65e5	1.41e5	2.27e6	1.62e6	inactive
4	Vha16-4 (Vacuolar H[+] ATPase 16kD subunit 4)	1	47389	86181	1.26e6	1.26e6	inactive
5	c12.1	1	3.45e5	3.99e5	2.76e6	3.82e6	inactive
6	c12.1	2	5.13e5	6.45e5	8.34e5	6.89e5	inactive
7	CG13063	1	3.31e5	3.67e5	3.36e6	2.96e6	inactive
8	CG13063	2	6.87e5	6.39e5	9.71e5	9.65e5	inactive
9	Pax (Paxillin)	1	1.80e5	2.11e5	3.94e5	4.96e5	inactive
10	Pax (Paxillin)	2	7.91e5	5.97e5	2.08e6	2.09e6	inactive
11	Pax (Paxillin)	3	2.53e5	3.09e5	2.91e6	2.63e6	inactive
12	Arr1 (Arrestin 1)	1	1.05e5	1.57e5	1.41e6	2.13e6	inactive
13	CG11807	1	1.06e6	9.97e5	2.56e6	2.19e6	inactive
14	CG15475	1	1.22e5	1.36e5	1.40e6	1.88e6	inactive
15	CG15475	2	5.65e5	6.18e5	1.42e6	1.28e6	inactive
16	tut (tumorous testis)	1	2.09e5	1.48e5	4.64e5	3.56e5	inactive
17	CG3880	1	3.45e5	3.89e5	2.20e6	2.75e6	inactive
18	CG3880	2	6.35e5	7.84e5	2.05e6	2.17e6	inactive
19	CG3880	3	1.87e5	2.64e5	4.10e5	6.66e5	inactive
20	lncRNA:CR43337 (long non-coding RNA:CR43337)	1	1.86e5	1.33e5	3.67e5	3.69e5	inactive
21	lncRNA:CR43337 (long non-coding RNA:CR43337)	2	6.75e5	9.68e5	7.40e5	7.73e5	inactive
22	hyx (hyrax)	1	57212	53926	2.95e5	3.75e5	inactive
23	chm (chameau)	1	8.20e5	8.60e5	2.09e6	1.72e6	inactive
24	chm (chameau)	2	8.40e5	4.25e5	8.34e5	4.68e5	inactive
25	Arpc2 (Actin-related protein 2/3 complex, subunit 2)	1	7.99e5	8.35e5	1.52e6	1.93e6	inactive
26	Tektin-C (Tektin C)	1	2.11e5	1.53e5	1.60e6	1.56e6	inactive
27	Tektin-C (Tektin C)	2	2.63e5	2.07e5	6.41e5	6.85e5	inactive
28	glo (glorund)	1	84210	98343	2.18e6	2.13e6	inactive
29	glo (glorund)	2	2.25e5	1.75e5	6.21e5	8.36e5	inactive
30	Mgat1	1	40740	45627	8.30e5	8.75e5	inactive
31	Rbcn-3B (Rabconnectin-3B)	1	3.82e5	2.74e5	4.09e6	4.02e6	inactive
32	ssp6 (short spindle 6)	1	98040	78284	2.01e5	1.38e5	inactive
33	ssp6 (short spindle 6)	2	2.05e5	1.66e5	9.49e5	1.06e6	inactive
34	ssp6 (short spindle 6)	3	2.13e5	3.08e5	3.48e5	6.17e5	inactive
35	rudhira	1	5.18e5	5.97e5	2.25e6	1.70e6	inactive
36	rudhira	2	7.20e5	1.11e6	1.81e6	2.55e6	inactive
37	rudhira	3	1.07e6	1.23e6	1.07e6	1.59e6	inactive
38	CG4287	1	77593	1.16e5	6.06e5	5.98e5	inactive
39	CG4287	2	5.01e5	4.86e5	7.91e5	5.80e5	inactive
40	boi	1	2.02e5	3.11e5	4.04e6	3.82e6	inactive
41	boi	2	3.58e5	3.65e5	4.37e6	3.40e6	inactive
42	boi	3	6.40e5	6.48e5	1.16e6	8.63e5	inactive
43	Gr64f (Gustatory receptor 64f)	1	1.57e5	1.22e5	1.69e6	2.66e6	inactive
44	Gr64f (Gustatory receptor 64f)	2	4.50e5	4.10e5	9.16e5	8.02e5	inactive
45	sta (stubarista)	1	2.13e5	1.92e5	1.99e6	1.99e6	inactive
46	sta (stubarista)	2	2.64e5	2.99e5	6.00e5	4.47e5	inactive
47	CSN4 (COP9 signalosome subunit 4)	1	1.32e5	1.05e5	8.63e5	1.14e6	inactive
48	CG11694	1	1.08e5	1.86e5	1.91e6	1.91e6	inactive
49	CG11694	2	1.19e6	9.04e5	9.25e5	7.92e5	inactive
50	CG11694	3	4.83e5	4.17e5	1.49e6	1.60e6	inactive
51	rux (roughex)	1	1.31e5	1.08e5	7.55e5	5.26e5	inactive
52	CG12689	1	2.80e5	3.99e5	2.67e6	2.61e6	inactive
53	Toll-7	1	4.37e5	4.30e5	1.23e6	1.02e6	inactive
54	Toll-7	2	3.81e5	5.56e5	1.02e6	1.02e6	inactive
55	CG17375	1	1.91e5	2.05e5	1.92e6	1.57e6	inactive
56	CG17375	2	4.10e5	4.55e5	8.82e5	8.82e5	inactive
57	fwd (four wheel drive)	1	1.02e6	1.33e6	1.15e6	1.33e6	inactive
58	fwd (four wheel drive)	2	3.40e5	3.28e5	9.85e5	9.62e5	inactive
59	fwd (four wheel drive)	3					inactive
60	fwd (four wheel drive)	4					inactive

Looked up above:
sta (stubarista) #1, firefly reporter light, replicate 2 → 1.92e5
Entry of hyx (hyrax) under “Renilla control light, replicate 1”: 2.95e5
glo (glorund) #2, firefly reporter light, replicate 1 → 2.25e5
CG3880 #3, firefly reporter light, replicate 2: 2.64e5
CG17375 #1, firefly reporter light, replicate 1 = 1.91e5
Under “Renilla control light, replicate 1”, sta (stubarista) #2 shows 6.00e5
